The match of structure and compound is tentative.
What was measured:
[1] = molecular target: Kv1.3 potassium channel (Homo sapiens, UniProt P22001); experiment: Kv1.3 potassium channel blocker activity, automated whole-cell patch clamp (Patchliner); details: read-out: Kv1.3 IC50; CHO-K1 cells stably expressing Kv1.3; 100 ms pulses from -90 mV to +40 mV, 0.1 Hz
Description: This assay is used to evaluate the disclosed compounds' activities as Kv1.3 potassium channel blockers.
CHO-K1 cells stably expressing Kv1.3 were grown in DMEM containing 10% heat-inactivated FBS, 1 mM sodium pyruvate, 2 mM L-glutamine and G418 (500 μg/ml). Cells were grown in culture flasks at 37° C. in a 5% CO2-humidified incubator.
(§1) The cells were bathed in an extracellular solution containing 140 mM NaCl, 4 mM KCl, 2 mM CaCl2), 1 mM MgCl2, 5 mM glucose, and 10 mM HEPES; pH adjusted to 7.4 with NaOH; 295-305 mOsm. The internal solution contained 50 mM KCl, 10 mM NaCl, 60 mM KF, 20 mM EGTA, and 10 mM HEPES; pH adjusted to 7.2 with KOH; 285 mOsm. All compounds were dissolved in DMSO at 30 mM. Compound stock solutions were freshly diluted with external solution to concentrations of 30 nM, 100 nM, 300 nM, 1 μM, 3 μM, 10 μM, 30 μM and 100 μM. The highest content of DMSO (0.3%) was present in 100 μM.
The currents were evoked by applying 100 ms depolarizing pulses from −90 mV (holding potential) to +40 mV were applied with 0.1 Hz frequency. Control (compound-free) and compound pulse trains for each compound concentration applied contained 20 pulses.
10-second breaks were used between pulse trains (see Table 2 below).
Whole-cell current recordings and compound application were enabled by means of an automated patch clamp platform Patchliner (Nanion Technologies GmbH). […]

By UniProt entry, the sequences of proteins in these tests, tags left out.
UniProt P22001, whole entry: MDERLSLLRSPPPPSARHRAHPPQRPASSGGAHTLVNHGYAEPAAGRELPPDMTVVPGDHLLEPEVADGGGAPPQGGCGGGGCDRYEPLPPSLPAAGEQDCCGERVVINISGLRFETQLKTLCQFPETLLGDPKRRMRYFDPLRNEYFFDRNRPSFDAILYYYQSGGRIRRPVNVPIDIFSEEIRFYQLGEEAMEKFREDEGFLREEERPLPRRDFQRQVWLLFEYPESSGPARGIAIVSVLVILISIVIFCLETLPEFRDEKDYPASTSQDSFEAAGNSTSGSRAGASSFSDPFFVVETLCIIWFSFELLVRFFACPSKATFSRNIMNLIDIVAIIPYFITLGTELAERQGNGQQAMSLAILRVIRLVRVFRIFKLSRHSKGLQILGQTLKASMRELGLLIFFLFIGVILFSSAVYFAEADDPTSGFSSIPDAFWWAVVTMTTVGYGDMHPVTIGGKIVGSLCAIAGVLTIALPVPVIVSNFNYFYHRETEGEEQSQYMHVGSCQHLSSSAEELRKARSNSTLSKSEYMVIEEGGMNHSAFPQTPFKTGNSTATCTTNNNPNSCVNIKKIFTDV
UniProt Q12809, whole entry: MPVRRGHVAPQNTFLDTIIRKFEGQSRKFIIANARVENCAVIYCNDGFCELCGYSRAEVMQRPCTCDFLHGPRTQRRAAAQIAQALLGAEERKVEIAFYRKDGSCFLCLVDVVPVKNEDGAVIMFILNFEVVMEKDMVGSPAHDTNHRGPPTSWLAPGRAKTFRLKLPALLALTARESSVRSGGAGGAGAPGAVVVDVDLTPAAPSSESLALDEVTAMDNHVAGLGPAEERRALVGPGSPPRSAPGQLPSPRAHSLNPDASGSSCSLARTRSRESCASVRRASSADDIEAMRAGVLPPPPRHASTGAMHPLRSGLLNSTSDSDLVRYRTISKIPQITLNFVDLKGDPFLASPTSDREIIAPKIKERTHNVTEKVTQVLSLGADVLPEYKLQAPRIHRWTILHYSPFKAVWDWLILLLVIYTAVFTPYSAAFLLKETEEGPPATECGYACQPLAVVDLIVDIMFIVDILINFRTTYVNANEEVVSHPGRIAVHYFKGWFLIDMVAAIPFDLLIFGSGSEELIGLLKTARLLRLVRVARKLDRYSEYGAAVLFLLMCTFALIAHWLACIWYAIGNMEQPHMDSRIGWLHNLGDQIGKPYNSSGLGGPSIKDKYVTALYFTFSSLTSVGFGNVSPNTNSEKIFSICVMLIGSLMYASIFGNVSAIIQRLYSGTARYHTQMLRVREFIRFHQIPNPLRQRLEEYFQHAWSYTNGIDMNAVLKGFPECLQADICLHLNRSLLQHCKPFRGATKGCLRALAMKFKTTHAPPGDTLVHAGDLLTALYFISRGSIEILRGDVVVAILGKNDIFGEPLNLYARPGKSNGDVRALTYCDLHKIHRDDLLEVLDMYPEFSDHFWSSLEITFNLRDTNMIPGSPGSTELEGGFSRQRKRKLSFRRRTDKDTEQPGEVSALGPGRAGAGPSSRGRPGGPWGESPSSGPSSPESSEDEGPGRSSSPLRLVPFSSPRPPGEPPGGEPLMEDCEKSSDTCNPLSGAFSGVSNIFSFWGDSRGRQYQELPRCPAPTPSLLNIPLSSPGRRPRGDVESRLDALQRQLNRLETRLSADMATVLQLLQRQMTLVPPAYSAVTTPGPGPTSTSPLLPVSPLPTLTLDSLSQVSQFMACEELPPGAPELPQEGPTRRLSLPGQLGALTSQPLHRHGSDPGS

[2] = molecular target: hERG channel (Homo sapiens, UniProt Q12809); experiment: hERG electrophysiology, automated whole-cell patch clamp (Patchliner); details: read-out: hERG IC50; CHO-K1 cells stably expressing hERG; +20 mV 300 ms, -50 mV 300 ms tail current, 0.3 Hz
Description: This assay is used to evaluate the disclosed compounds' inhibition activities against the hERG channel.
CHO-K1 cells stably expressing hERG were grown in Ham's F-12 Medium with glutamine containing 10% heat-inactivated FBS, 1% penicillin/streptomycin, hygromycin (100 μg/ml) and G418 (100 μg/ml). Cells were grown in culture flasks at 37° C. in a 5% CO2-humidified incubator.
as §1
The voltage protocol (see Table 3) was designed to simulate voltage changes during a cardiac action potential with a 300 ms depolarization to +20 mV (analogous to the plateau phase of the cardiac action potential), a repolarization for 300 ms to −50 mV (inducing a tail current) and a final step to the holding potential of −80 mV. The pulse frequency was 0.3 Hz. […]

Structure (SMILES): O=C([C@H]1CCCO1)N1CC(=O)N2C[C@@H](c3c(O)ccc(Cl)c3Cl)C[C@H]2C1
- IC50 [1]: < 1 µM
- IC50 [2]: < 30 µM

Reference: patent publication US20230049231A1 (priority 2019, published 2023)
